Assay results taken from article PMC2048977.
Results are given in words; binding and its absence hold for the method and conditions named. Binding seen in cells or lysates may run through a third protein. Some results given as binding are weak or reduced against the parent protein; the word gives no strength. For part of these data: Where a sequence is shown, tags or fusion partners need not be part of it. Values belong to the molecule of their own block, whether it stands above or below them.

Amino acid sequences for entries named in this document (tags omitted). Chains listed by the source or under a name are the forms on record and can include a tag or linker. Residues count along the entry.
GST tagged C-terminal region of CBP (amino acids 1680 to 2441) (P45481, residues 1680-2441): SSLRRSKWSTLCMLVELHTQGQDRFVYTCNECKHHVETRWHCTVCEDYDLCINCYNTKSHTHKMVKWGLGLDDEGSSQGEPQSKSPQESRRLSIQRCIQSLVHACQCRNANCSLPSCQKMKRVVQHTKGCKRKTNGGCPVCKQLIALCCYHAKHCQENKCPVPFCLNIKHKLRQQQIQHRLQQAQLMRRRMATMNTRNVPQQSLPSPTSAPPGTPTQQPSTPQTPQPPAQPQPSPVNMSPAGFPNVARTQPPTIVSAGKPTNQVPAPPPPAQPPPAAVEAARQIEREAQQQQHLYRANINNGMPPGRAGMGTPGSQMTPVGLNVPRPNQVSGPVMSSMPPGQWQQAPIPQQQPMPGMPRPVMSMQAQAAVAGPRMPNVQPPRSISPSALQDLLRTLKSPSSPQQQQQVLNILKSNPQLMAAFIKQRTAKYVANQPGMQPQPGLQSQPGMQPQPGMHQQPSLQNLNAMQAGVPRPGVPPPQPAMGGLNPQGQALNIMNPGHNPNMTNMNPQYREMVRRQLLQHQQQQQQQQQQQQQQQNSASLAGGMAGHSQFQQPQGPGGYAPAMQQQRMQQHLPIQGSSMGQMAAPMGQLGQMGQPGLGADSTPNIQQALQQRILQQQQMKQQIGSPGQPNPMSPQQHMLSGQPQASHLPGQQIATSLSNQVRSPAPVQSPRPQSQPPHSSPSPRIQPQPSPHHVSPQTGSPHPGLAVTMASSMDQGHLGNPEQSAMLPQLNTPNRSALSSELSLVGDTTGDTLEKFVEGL
GST-CBP peptides (amino acids 1680–1892), CH3 domain of CBP (P45481, residues 1680-1892): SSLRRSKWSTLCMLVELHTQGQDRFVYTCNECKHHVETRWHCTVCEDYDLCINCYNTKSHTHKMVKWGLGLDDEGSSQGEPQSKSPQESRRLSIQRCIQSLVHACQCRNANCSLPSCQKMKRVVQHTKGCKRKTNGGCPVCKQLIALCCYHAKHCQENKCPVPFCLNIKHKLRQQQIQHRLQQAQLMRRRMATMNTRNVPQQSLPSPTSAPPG
UniProt Q09472: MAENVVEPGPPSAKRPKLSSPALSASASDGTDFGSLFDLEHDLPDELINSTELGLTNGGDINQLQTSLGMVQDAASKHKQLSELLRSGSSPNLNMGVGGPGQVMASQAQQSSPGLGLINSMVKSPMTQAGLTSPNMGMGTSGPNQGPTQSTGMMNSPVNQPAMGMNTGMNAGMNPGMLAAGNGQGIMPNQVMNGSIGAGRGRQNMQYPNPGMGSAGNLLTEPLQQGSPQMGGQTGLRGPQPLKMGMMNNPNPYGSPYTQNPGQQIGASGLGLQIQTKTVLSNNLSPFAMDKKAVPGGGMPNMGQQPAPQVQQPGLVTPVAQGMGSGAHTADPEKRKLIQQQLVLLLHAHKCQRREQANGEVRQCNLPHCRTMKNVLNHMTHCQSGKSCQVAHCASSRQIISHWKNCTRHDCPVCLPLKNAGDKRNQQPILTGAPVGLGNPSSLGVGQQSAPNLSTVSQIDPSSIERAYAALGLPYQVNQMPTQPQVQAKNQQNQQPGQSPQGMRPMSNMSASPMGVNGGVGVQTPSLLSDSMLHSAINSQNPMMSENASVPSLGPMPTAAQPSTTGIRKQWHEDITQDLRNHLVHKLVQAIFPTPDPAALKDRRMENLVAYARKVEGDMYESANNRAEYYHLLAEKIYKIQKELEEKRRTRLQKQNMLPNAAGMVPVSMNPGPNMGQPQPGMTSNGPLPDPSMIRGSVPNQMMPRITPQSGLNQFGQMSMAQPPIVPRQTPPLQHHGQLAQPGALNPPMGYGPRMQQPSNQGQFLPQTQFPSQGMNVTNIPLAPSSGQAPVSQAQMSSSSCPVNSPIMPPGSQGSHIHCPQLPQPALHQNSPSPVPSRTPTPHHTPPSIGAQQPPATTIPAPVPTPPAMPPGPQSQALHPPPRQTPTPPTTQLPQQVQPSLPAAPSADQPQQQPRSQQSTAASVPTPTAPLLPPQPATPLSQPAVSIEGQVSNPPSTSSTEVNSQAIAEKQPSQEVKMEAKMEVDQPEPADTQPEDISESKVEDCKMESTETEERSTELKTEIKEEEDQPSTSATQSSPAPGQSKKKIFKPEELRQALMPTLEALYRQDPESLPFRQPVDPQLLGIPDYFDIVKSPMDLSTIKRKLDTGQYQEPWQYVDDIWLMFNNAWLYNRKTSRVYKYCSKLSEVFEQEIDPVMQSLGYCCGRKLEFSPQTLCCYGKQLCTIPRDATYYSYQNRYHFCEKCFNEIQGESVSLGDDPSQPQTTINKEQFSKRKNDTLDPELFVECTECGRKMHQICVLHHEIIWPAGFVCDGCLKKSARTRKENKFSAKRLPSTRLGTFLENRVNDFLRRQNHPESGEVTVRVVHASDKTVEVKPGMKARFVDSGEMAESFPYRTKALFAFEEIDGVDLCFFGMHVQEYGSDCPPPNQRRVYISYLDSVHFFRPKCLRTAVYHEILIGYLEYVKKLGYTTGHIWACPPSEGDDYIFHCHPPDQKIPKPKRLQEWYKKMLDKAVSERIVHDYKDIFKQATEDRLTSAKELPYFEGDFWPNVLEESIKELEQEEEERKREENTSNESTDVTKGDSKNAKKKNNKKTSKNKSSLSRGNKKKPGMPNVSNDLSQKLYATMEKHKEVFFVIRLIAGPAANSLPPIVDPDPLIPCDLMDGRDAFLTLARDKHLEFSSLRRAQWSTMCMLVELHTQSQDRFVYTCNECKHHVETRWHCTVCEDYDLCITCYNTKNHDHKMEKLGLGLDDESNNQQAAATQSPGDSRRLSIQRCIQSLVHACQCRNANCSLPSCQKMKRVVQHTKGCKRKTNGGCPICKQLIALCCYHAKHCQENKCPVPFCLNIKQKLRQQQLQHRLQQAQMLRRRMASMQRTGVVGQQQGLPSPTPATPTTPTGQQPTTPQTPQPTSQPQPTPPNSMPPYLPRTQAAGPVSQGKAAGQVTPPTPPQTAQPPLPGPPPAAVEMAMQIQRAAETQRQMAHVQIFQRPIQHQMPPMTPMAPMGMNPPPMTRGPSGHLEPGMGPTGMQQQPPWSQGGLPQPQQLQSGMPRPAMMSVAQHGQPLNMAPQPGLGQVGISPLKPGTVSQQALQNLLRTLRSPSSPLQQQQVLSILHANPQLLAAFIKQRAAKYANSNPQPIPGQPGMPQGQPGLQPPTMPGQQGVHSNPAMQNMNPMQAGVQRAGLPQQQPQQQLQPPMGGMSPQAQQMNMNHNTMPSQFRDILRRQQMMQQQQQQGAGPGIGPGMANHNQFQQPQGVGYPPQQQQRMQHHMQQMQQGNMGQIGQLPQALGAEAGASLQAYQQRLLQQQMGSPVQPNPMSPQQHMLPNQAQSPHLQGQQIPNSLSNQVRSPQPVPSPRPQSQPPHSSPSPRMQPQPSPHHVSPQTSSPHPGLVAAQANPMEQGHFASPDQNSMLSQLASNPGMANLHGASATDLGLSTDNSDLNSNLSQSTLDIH
UniProt Q92793: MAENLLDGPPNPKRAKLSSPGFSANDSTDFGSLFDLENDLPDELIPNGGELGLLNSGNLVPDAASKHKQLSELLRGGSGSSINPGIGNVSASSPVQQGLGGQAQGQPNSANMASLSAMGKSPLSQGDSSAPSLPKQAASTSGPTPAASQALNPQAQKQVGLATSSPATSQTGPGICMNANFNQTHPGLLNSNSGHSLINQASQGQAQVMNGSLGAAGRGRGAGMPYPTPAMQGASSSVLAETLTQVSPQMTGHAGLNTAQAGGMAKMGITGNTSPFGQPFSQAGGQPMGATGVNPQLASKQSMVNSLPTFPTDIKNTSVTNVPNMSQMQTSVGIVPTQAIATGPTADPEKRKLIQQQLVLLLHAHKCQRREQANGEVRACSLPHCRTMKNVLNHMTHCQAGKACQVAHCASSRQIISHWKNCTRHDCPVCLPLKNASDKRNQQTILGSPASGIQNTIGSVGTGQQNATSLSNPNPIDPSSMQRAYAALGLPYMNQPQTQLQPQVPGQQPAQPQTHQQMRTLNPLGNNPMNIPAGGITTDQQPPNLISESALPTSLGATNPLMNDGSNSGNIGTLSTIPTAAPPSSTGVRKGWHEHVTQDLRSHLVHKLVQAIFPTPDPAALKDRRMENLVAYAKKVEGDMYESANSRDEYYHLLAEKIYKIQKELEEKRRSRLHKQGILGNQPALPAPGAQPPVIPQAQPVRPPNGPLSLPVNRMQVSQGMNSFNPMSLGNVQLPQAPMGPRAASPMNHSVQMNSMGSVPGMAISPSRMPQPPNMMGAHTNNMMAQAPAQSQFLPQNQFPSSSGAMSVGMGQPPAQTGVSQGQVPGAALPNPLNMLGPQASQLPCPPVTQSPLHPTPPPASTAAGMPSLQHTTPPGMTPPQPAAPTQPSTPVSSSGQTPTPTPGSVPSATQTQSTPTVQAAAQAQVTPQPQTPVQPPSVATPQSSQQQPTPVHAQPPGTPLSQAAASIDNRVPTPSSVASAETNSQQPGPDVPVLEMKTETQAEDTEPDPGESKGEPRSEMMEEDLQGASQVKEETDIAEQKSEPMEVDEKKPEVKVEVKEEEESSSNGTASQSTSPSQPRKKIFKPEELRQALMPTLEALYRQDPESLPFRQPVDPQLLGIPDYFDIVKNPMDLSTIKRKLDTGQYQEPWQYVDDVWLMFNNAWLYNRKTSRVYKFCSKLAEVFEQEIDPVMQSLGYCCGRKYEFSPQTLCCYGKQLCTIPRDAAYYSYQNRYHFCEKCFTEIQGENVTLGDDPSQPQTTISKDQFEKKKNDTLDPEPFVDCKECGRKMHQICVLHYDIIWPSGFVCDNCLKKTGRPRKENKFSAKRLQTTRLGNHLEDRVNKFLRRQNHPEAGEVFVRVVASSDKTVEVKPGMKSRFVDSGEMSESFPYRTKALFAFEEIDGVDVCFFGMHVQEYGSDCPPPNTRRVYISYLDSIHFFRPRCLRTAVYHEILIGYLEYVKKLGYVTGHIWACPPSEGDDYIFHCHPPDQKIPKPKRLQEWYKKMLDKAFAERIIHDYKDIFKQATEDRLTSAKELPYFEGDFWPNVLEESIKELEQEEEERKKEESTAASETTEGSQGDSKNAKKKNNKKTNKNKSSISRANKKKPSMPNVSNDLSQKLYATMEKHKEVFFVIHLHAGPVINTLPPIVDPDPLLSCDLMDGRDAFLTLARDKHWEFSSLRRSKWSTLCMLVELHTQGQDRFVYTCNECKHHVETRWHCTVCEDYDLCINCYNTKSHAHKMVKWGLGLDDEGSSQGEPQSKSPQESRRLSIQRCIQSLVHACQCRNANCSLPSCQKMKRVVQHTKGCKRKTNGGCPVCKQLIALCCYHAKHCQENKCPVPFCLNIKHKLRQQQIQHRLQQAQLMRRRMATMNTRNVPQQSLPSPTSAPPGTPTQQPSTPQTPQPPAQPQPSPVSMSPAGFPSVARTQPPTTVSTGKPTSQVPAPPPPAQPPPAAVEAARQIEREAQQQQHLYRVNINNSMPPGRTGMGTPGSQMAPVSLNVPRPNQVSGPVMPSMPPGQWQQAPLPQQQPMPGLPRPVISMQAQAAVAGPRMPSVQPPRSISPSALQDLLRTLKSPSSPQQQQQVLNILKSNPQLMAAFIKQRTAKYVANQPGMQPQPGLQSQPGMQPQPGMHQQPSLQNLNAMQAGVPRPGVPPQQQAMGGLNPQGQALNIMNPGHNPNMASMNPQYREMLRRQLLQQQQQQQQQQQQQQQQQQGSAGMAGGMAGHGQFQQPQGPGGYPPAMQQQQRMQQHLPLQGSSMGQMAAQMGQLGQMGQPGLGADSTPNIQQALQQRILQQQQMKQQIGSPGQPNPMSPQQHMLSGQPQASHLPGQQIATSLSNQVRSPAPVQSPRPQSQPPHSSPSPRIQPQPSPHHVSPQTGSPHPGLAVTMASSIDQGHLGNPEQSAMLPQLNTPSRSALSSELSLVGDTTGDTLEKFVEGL

How the values were obtained:
[1] = target: GST-MOZ peptide containing the MYST domain (amino acids 523–759) (human) (UniProt Q92794); assay: pull-down; 5 μl in vitro-translated 35S-Met-labelled protein with 3–5 μg GST fusion protein on Sepharose 4B beads; 50 mM Tris-HCl pH 8.0, 100 mM NaCl, 0.3 mM DTT, 10 mM MgCl2, 10% glycerol, 0.1% NP40; 4°C, 1 hour; five washes; autoradiography; only the target purified
[2] = target: His-tagged MOZ (monocytic leukemia zinc finger protein) (human) (UniProt Q92794); assay: co-IP; HEK293 transiently transfected with His-tagged MOZ, MOZ-TIF2 or vector alone, lysed after 36 hours; anti-His-tag antibody conjugated to agarose, 4°C overnight; washed with PBS 0.5 % NP-40; western with anti-CBP antibody
[3] = target: GST-CBP peptides (amino acids 1680–1892), CH3 domain of CBP (UniProt P45481); assay: pull-down; 5 μl in vitro-translated 35S-Met-labelled protein with 3–5 μg GST fusion protein on Sepharose 4B beads; 50 mM Tris-HCl pH 8.0, 100 mM NaCl, 0.3 mM DTT, 10 mM MgCl2, 10% glycerol, 0.1% NP40; 4°C, 1 hour; five washes; autoradiography; only the target purified
[4] = target: GST tagged C-terminal region of CBP (amino acids 1680 to 2441) (UniProt P45481); assay: as above
[5] = target: His-tagged MOZ (monocytic leukemia zinc finger protein) (human) (UniProt Q92794); assay: co-IP; data not shown; p300 co-precipitated by wild type MOZ and MOZ-TIF2
[6] = target: GST tagged C-terminal region of CBP (amino acids 1680 to 2441) (UniProt P45481); assay: pull-down; whole cell extract of HEK 293 cells expressing Xpress-tagged MOZ-TIF2 fragments (36 hours) incubated with GST-tagged C terminal of CBP on Glutathione-Sepharose beads; detected with anti-Xpress antibody; only the target purified

Molecule: 35S-methionine labeled CH3 domain peptides of CBP (amino acids 1680–1892) (from UniProt P45481 1680-1892) (domain or fragment)
- binding [1]: binds

Molecule: p300, a CBP-like histone acetylase (from UniProt Q09472 1-2414)
- binding [5]: binds

Now from value to molecule:

- binding [2]: binds
Molecule: CBP (cAMP-response element binding protein-binding protein), endogenous in HEK293 (from UniProt Q92793 1-2442)

- binding [3]: binds
- binding [4]: binds
Molecule: MOZ-TIF2 1–759 (MOZ portion of MOZ-TIF2), 35S-methionine labelled (from UniProt Q92794 1-759) (domain or fragment)

- binding [6]: binds
B1: Xpress-tagged MT2 1–907 del 193–346/486/764 (domain or fragment, UniProt Q92794)
chain: MVKLANPLYTEWILEAIKKVKKQKQRPSEERICNAVSSSHGLDRKTVLEQLELSVKDGTILKVSNKGLNSYKDPDNPGRIALPKPRNHGKLDNKQNVDWNKLIKRAVEGLAESGGSTLKSIERFLKGQKDVSALFGGSAASGFHQQLRLAIKRAIGHGRLLKDGPLYRLNTKATNVDGKESCESLSCLPPVSTVSKGPFSKVRTGPGRGRKRKITLSSQSASSSSEEGYLERIDGLDFCRDSNVSLKFNKKTKGLIDGLTKFFTPSPDGRKARGEVVDYSEQYRIRKRGNRKSSTSDWPTDNQDGWDGKQENEERLFGSQEIMTEKDMELFRPVDVDPECLRWTPVIVSNSVVSEEEEEEAEEGENEEPQCQERELEISVGKSVSHENKEQDSYSVESEKKPEVMAPVSSTRLSKQVLPHDSLPANSQPSRRGRWGRKNRKTQERFGDKDSKLLLEETSSAPQEQYGECGEKSE
